Consider 1 molecule from article PMC7841112.

Sequences of proteins named here, by UniProt entry; tags and fusion partners are left off. A change or cut given only in a name is not applied to a line headed by its entry. A line that says so, or that is headed by a name, gives the form on record, which may keep a tag or linker.
eEF1BδL WT-green fluorescent protein (GFP) (P29692, form named): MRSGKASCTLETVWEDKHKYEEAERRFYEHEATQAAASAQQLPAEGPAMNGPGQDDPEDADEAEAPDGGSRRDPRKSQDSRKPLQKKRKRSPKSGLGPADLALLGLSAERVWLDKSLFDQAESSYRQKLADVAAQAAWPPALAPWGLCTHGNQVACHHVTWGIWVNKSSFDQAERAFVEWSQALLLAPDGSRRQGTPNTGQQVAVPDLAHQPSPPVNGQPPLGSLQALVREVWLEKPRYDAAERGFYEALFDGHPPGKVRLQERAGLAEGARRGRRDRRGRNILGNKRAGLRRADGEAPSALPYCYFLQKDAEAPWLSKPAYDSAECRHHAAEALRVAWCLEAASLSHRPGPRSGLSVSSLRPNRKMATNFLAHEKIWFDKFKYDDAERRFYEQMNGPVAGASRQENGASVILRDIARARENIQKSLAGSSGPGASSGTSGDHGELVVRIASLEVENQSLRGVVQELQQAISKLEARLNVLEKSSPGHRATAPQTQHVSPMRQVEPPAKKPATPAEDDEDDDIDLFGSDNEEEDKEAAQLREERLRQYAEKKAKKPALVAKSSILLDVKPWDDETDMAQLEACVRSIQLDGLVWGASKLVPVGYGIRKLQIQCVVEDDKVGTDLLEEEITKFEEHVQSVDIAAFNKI

These are yes or no findings as the source states them, for the method shown. In cells and extracts the contact can be indirect. Some results given as binding are weak or reduced against the parent protein; the word gives no strength.

The assay deals with eEF1BδL WT-green fluorescent protein (GFP) (UniProt P29692). In words: co-IP; cell extract in NP lysis buffer incubated with anti-GFP antibody overnight at 4°C, Protein A or G Sepharose; eEF1BδL-GFP precipitated, Nrf2 detected by Western blot.

B1: Nrf2 (protein, UniProt Q16236 1-605)
chain: MMDLELPPPGLPSQQDMDLIDILWRQDIDLGVSREVFDFSQRRKEYELEKQKKLEKERQEQLQKEQEKAFFAQLQLDEETGEFLPIQPAQHIQSETSGSANYSQVAHIPKSDALYFDDCMQLLAQTFPFVDDNEVSSATFQSLVPDIPGHIESPVFIATNQAQSPETSVAQVAPVDLDGMQQDIEQVWEELLSIPELQCLNIENDKLVETTMVPSPEAKLTEVDNYHFYSSIPSMEKEVGNCSPHFLNAFEDSFSSILSTEDPNQLTVNSLNSDATVNTDFGDEFYSAFIAEPSISNSMPSPATLSHSLSELLNGPIDVSDLSLCKAFNQNHPESTAEFNDSDSGISLNTSPSVASPEHSVESSSYGDTLLGLSDSEVEELDSAPGSVKQNGPKTPVHSSGDMVQPLSPSQGQSTHVHDAQCENTPEKELPVSPGHRKTPFTKDKHSSRLEAHLTRDELRAKALHIPFPVEKIINLPVVDFNEMMSKEQFNEAQLALIRDIRRRGKNKVAAQNCRKRKLENIVELEQDLDHLKDEKEKLLKEKGENDKSLHLLKKQLSTLYLEVFSMLRDEDGKPYSPSEYSLQQTRDGNVFLVPKSKKPDVKKN
Regarding B1, the binding entry is listed as “binds”.
